Article PMC10454406

Amino acid sequences for entries named in this document (tags omitted).
UniProt P0DTC4: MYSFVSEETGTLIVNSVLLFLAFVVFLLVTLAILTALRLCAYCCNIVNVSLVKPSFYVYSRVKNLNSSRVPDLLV

Assays:
[1] = target: GFP-SARS-CoV-2 E protein (wild-type E protein) (SARS-CoV-2), P0DTC4; test: affinity purification with mass spectrometry; conditions: remark: other sources report otherwise
[2] = target: GFP-SARS-CoV-2 E protein (wild-type E protein) (SARS-CoV-2) (UniProt P0DTC4); test: affinity purification with mass spectrometry

B1: PALS1 (protein associated with lin-seven-1), Q8N3R9 1-675 (protein)
chain: MTTSHMNGHVTEESDSEVKNVDLASPEEHQKHREMAVDCPGDLGTRMMPIRRSAQLERIRQQQEDMRRRREEEGKKQELDLNSSMRLKKLAQIPPKTGIDNPMFDTEEGIVLESPHYAVKILEIEDLFSSLKHIQHTLVDSQSQEDISLLLQLVQNKDFQNAFKIHNAITVHMNKASPPFPLISNAQDLAQEVQTVLKPVHHKEGQELTALLNTPHIQALLLAHDKVAEQEMQLEPITDERVYESIGQYGGETVKIVRIEKARDIPLGATVRNEMDSVIISRIVKGGAAEKSGLLHEGDEVLEINGIEIRGKDVNEVFDLLSDMHGTLTFVLIPSQQIKPPPAKETVIHVKAHFDYDPSDDPYVPCRELGLSFQKGDILHVISQEDPNWWQAYREGDEDNQPLAGLVPGKSFQQQREAMKQTIEEDKEPEKSGKLWCAKKNKKKRKKVLYNANKNDDYDNEEILTYEEMSLYHQPANRKRPIILIGPQNCGQNELRQRLMNKEKDRFASAVPHTTRSRRDQEVAGRDYHFVSRQAFEADIAAGKFIEHGEFEKNLYGTSIDSVRQVINSGKICLLSLRTQSLKTLRNSDLKPYIIFIAPPSQERLRALLAKEGKNPKPEELREIIEKTREMEQNNGHYFDTAIVNSDLDKAYQELLRLINKLDTEPQWVPSTWLR
In the case of B1, the binding [1] is reported as “no binding”.

B2: protein lin-7 homolog A (protein, UniProt O14910 1-233)
chain: MLKPSVTSAPTADMATLTVVQPLTLDRDVARAIELLEKLQESGEVPVHKLQSLKKVLQSEFCTAIREVYQYMHETITVNGCPEFRARATAKATVAAFAASEGHSHPRVVELPKTDEGLGFNVMGGKEQNSPIYISRIIPGGVAERHGGLKRGDQLLSVNGVSVEGEHHEKAVELLKAAKDSVKLVVRYTPKVLEEMEARFEKLRTARRRQQQQLLIQQQQQQQQQQTQQNHMS
In the case of B2, the binding [2] is reported as “binds”.

B3: RAE1 (protein, UniProt P78406 1-368)
chain: MSLFGTTSGFGTSGTSMFGSATTDNHNPMKDIEVTSSPDDSIGCLSFSPPTLPGNFLIAGSWANDVRCWEVQDSGQTIPKAQQMHTGPVLDVCWSDDGSKVFTASCDKTAKMWDLSSNQAIQIAQHDAPVKTIHWIKAPNYSCVMTGSWDKTLKFWDTRSSNPMMVLQLPERCYCADVIYPMAVVATAERGLIVYQLENQPSEFRRIESPLKHQHRCVAIFKDKQNKPTGFALGSIEGRVAIHYINPPNPAKDNFTFKCHRSNGTNTSAPQDIYAVNGIAFHPVHGTLATVGSDGRFSFWDKDARTKLKTSEQLDQPISACCFNHNGNIFAYASSYDWSKGHEFYNPQKKNYIFLRNAAEELKPRNKK
B3 was tested, and the binding [2] was “binds”.

B4: membrane palmitoylated protein 1 (protein, UniProt Q00013 1-466)
chain: MTLKASEGESGGSMHTALSDLYLEHLLQKRSRPEAVSHPLNTVTEDMYTNGSPAPGSPAQVKGQEVRKVRLIQFEKVTEEPMGITLKLNEKQSCTVARILHGGMIHRQGSLHVGDEILEINGTNVTNHSVDQLQKAMKETKGMISLKVIPNQQSRLPALQMFMRAQFDYDPKKDNLIPCKEAGLKFATGDIIQIINKDDSNWWQGRVEGSSKESAGLIPSPELQEWRVASMAQSAPSEAPSCSPFGKKKKYKDKYLAKHSSIFDQLDVVSYEEVVRLPAFKRKTLVLIGASGVGRSHIKNALLSQNPEKFVYPVPYTTRPPRKSEEDGKEYHFISTEEMTRNISANEFLEFGSYQGNMFGTKFETVHQIHKQNKIAILDIEPQTLKIVRTAELSPFIVFIAPTDQGTQTEALQQLQKDSEAIRSQYAHYFDLSLVNNGVDETLKKLQEAFDQACSSPQWVPVSWVY
For B4, the binding [2] was “binds”.

No constants are given. Whether binding was seen depends on the method and setting. Binding seen in cells or lysates may run through a third protein. A yes stands for co-enrichment or nearness to the bait. Other partners may have been found. For some of these results: No binding means not detected with the bait.
